Data from PubChem BioAssay AID1347075 (National Center for Advancing Translational Sciences (NCATS), 2019).
About 5,500 (1.4%) of roughly 400,000 compounds were called active. The inconclusive results got no clear call from the source; some entries with a clear call stand among them for comparison. Calls come from the whole dose curve; as a rule, active = well fitted cell-killing curve with a large enough effect; inconclusive = small, poorly fitted or top-dose-only effect, or effect the other way; inactive = flat fitted curve, though single readings scatter. Where the call is inconclusive, the potency comes from a doubtful curve fit.

Assay: qHTS assay for MDR1-selective chemotherapeutics: Primary screen using the parental adenocarcinoma cell KB-3-1; note: nearly all actives have a fitted effect of over 60% in size
Details: KB-3-1 viability, CellTiter-Glo ATP luminescence, 72 h; activity change, negative = cytotoxic: at 46.1 µM (top of the series)
Outline: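 KB-3-1 cells, DMEM (no phenol red) + 10% FBS; compound by pin transfer, 72 h, 37 °C. Readout: CellTiter-Glo luminescence after 10 min. Data normalized, curve-fitted.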
% is set by controls: 0 for no effect and ±100 for the full control effect; potency is the fitted concentration of half-maximal effect.

SMILES | Potency | activity change, negative = cytotoxic
COC(=O)c1ccc(Sc2nnnn2-c2ccccc2)c([N+](=O)[O-])c1 | inconclusive: 5.8 µM [cytotoxic, full curve] | 
O=C(CN1C(=O)C2(SCC(=O)N2c2cccc(Cl)c2)c2ccccc21)NC1CCCCC1 (stereo not drawn) | inconclusive: 10.3 µM [cytotoxic, partial curve, poor fit] | 
COc1ccc(N=C2C(=Nc3ccc(OC)cc3)N(c3ccc(OC)cc3)C(=S)N2C(=O)c2ccc(OC)cc2)cc1 |  | inconclusive: 9.91%
CCOC(=O)c1cc2sccc2n1CC(=O)C(C)(C)C |  | inactive: 0.675%
O=[N+]([O-])c1ccc(-c2cnc(SC(c3ccccc3)c3ccccc3)[nH]2)cc1 | inconclusive: 29.1 µM [cytotoxic, partial curve, poor fit] | 
O=C(Nc1nnc(-c2ccc(F)cc2)s1)C1CCN(S(=O)(=O)c2ccc(Cl)cc2)CC1 | inconclusive: 0.0065 µM [rising, full curve, poor fit] | 
Cc1ccc(OCCCC(=O)Nc2ccc(Cl)c(S(=O)(=O)N3CCOCC3)c2)cc1 | active: 14.6 µM | 
CCOc1ccc(CCN2C(=S)N([C@@H](CC(C)C)CN3CCC[C@@H]3CN3C(=S)NC[C@@H]3Cc3ccccc3)C[C@@H]2Cc2ccc(O)cc2)cc1 | inconclusive: 29.1 µM [cytotoxic, single point] | 
CCCNC(=O)C(Cc1ccccc1)NC(=O)c1ccccn1 (stereo not drawn) | inconclusive: 16.4 µM [rising, partial curve, poor fit] | 
COc1cccc(NC(=O)CCCN2C(=O)C3CC=CCC3C2=O)c1 (stereo not drawn) |  | inactive: 12.2%
O=C(Cc1ccccc1[N+](=O)[O-])NCC(=O)c1ccc2c(c1)OCO2 | inconclusive: 20.6 µM [rising, partial curve, poor fit] | 
O=C(NC1CCCC1)c1cc(-c2cccs2)on1 | inconclusive: 29.1 µM [cytotoxic, single point] | 
COc1ccc(C2C(C#N)=C(N)Nc3nc4ccccc4n32)cc1 (stereo not drawn) |  | inactive: 10.4%
O=C(COC(=O)c1ccco1)c1ccccc1 | inconclusive: 1.64 µM [rising, partial curve, poor fit] | 
CC1COC(=C2C(=O)OCC2C)C1 (stereo not drawn) |  | inactive: 2.94%
O=C(Cn1c(=O)c(=O)n(Cc2ccccc2)c2ccc(Cl)cc21)Nc1ccc(F)cc1F | inconclusive: 29.1 µM [cytotoxic, single point] | 
O=c1[nH][nH]c(=O)c(Cl)c1Cl |  | inactive: -24%
COc1cccc(/C(C#N)=C/c2c(-c3ccc(Cl)cc3)nc3c(C)cccn23)c1 | inconclusive: 29.1 µM [cytotoxic, single point] | 
NC1=NC(c2ccc(Cl)cc2)C(C(=O)c2ccccc2)N1 (stereo not drawn) | inconclusive: 29.1 µM [cytotoxic, single point] | 
C=Cc1ccc(CC2(C)C(=O)Nc3c(Cl)cccc32)cc1 (stereo not drawn) |  | inactive: 0%
CCCCCCC(O)(c1ccccc1)C(CN1CCOCC1)c1ccccc1 (stereo not drawn) | inconclusive: 20.6 µM [cytotoxic, partial curve] | 
O=C(c1cccc(N2CCNC2=O)c1)N1CCCC(Nc2cccc(F)c2)C1 (stereo not drawn) |  | inactive: 1.37%

SMILES | Potency | activity change, negative = cytotoxic
Cc1ccc(-n2ncc3c(NCCC4=CCCCC4)ncnc32)cc1C |  | inactive: -1.33%
O=C(NC1CCCC1)c1cccc(S(=O)(=O)N2CCOCC2)c1 |  | inactive: 1.59%
COc1ccc(-c2ccc([C@H]3[C@@H]4C=CCC[C@@]4(C)C(=O)N3Cc3ccccc3)c(F)c2)cc1 | inconclusive: 29.1 µM [cytotoxic, single point] | 
Cc1cccc(C)c1Cn1c(C)c(C(=O)NCc2cccc(Cl)c2)sc1=O | inconclusive: 18.4 µM [cytotoxic, single point] | 
CC(C)CCNC1=CC(=O)CC(c2ccccc2)C1 (stereo not drawn) | inconclusive: 29.1 µM [cytotoxic, single point] | 
O=C(NCC1CCCO1)C1CCN(C2CCN(C(=O)CC3CCCC3)CC2)CC1 (stereo not drawn) |  | inconclusive: 32.8%
O=c1c2c(nc3c(-c4ccc(Cl)cc4)c[nH]n13)CCCC2 | inconclusive: 6.31 µM [cytotoxic, full curve, poor fit] | 
COC(=O)[C@]1(CC(C)C)N[C@H](c2ccc(-c3ccc(OC)cc3)cc2)[C@@H]2C(=O)N(C)C(=O)[C@@H]21 | inconclusive: 18.4 µM [cytotoxic, single point] | 
CCOC(=O)c1c(-c2ccc(C)cc2C)csc1NC(=O)CSc1nnnn1C | inconclusive: 20.6 µM [cytotoxic, single point] | 
Cc1nc(NCCc2ccc(S(N)(=O)=O)cc2)c2c(C)c(C)sc2n1 | inconclusive: 25.9 µM [cytotoxic, partial curve, poor fit] | 
FC(F)(F)c1ccc(C2[C@H]3CN(Cc4cccnc4)[C@H](c4ccccc4)C34CC2(c2ccccc2)C4)cc1 (stereo partly drawn) | inconclusive: 18.4 µM [cytotoxic, single point] | 
Cc1nc2ccc([N+](=O)[O-])cc2[nH]1 | inconclusive: 0.103 µM [cytotoxic, full curve] | 
COc1ccc(NC(=O)CCNS(=O)(=O)c2cccc3nsnc23)cc1OC |  | inconclusive: 0.871%
COc1ccc(N(Cc2ccccc2)C(=O)c2nc(SC)ncc2Cl)cc1 | inconclusive: 25.9 µM [cytotoxic, single point] | 
CCc1nc(CNC(=O)C2CCC(=O)N(Cc3ccccc3F)C2)no1 (stereo not drawn) |  | inactive: -7.26%
Cc1ccc(Nc2nc(N)c([N+](=O)[O-])c(N3CCC(C)CC3)n2)cc1C | inconclusive: 29.1 µM [cytotoxic, single point] | 
O=C(O)/C=C/c1ccc2ccccc2n1 |  | inactive: 8.85%
CN1CCN(c2ccccc2NC(=O)c2ccc(-c3ccc(Br)cc3)o2)CC1 | inconclusive: 5.8 µM [cytotoxic, full curve, poor fit] | 
O=[N+]([O-])c1ccc(-c2n(-c3ccccn3)c3ccccc3[n+]2-c2ccccn2)cc1 |  | inactive: -6.89%
O=c1[nH]c(N/N=C/c2ccc(O)cc2)nc2ccccc12 | inconclusive: 29.1 µM [cytotoxic, single point] | 
CCN(CC)c1ccc(/C=N/NC(=O)c2nnn(-c3nonc3N)c2C(C)C)c(O)c1 | active: 1.3 µM | 

Among those listed so far, these contain a furan ring, fused or not:
SMILES | Potency | activity change, negative = cytotoxic
O=C(COC(=O)c1ccco1)c1ccccc1 | inconclusive: 1.64 µM [rising, partial curve, poor fit] | 
CN1CCN(c2ccccc2NC(=O)c2ccc(-c3ccc(Br)cc3)o2)CC1 | inconclusive: 5.8 µM [cytotoxic, full curve, poor fit] | 
